Assay results taken from PubChem BioAssay AID1794844 (National Center for Advancing Translational Sciences (NCATS), 2023).
Out of some 2,800 compounds screened, fewer than 10 were called active. Inconclusive results (about 7%) are left out. The call rests on the fitted dose curve; in most records, active means well fitted inhibition curve with a large enough effect; inconclusive means small, poorly fitted or top-dose-only effect; inactive means no such curve, though single readings can be large or run the other way. The list shows a part of the results.

Protein sequences, listed by entry. Tags and fused reporters are not part of them. Lines headed by an entry give the natural chain unless they say otherwise; changes in a name come on top.
UniProt C7C422: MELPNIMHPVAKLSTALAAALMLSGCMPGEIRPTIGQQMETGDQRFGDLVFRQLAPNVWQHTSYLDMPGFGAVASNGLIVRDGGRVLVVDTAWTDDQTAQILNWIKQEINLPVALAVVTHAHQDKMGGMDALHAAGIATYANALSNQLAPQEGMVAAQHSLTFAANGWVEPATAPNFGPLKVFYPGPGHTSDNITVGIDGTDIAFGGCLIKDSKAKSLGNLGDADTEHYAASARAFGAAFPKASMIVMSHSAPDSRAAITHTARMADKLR

molecular target: Metallo-beta-lactamase type 2 (Klebsiella pneumoniae) (UniProt C7C422); assay: qHTS to identify inhibitors of the New Delhi Metallo-beta-lactamase (NDM): Nitrocefin screen against the machine-based learning selections.; further: % of control where 0% means no effect; settings: NDM-1 enzyme, nitrocefin hydrolysis, absorbance 485 nm; activity, negative = inhibition: at the top concentration
Outline: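 Hydrolysis by 2 nM NDM-1 was followed by absorbance after >30 min compound preincubation in HEPES pH 7.0 buffer with 1 uM Zn2SO4. For nitrocefin (16.7 uM, 15 min, 485 nm) and meropenem (50 uM, 30 min, 300 nm), each substrate ran on separate plates.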

activity, negative = inhibition, inactive:
O=c1n(-c2ccc([N+](=O)[O-])cc2)nc2n1CCN(Cc1cccc3ccccc13)C2 0.445%
O=C(CN1CC2CC(C1)[C@H]1CCCC(=O)N1C2)NCc1cc(F)ccc1F (stereo partly specified) 3.54%
COC(=O)c1ccc2nc(CO[C@H]3CN(Cc4cnn(C)c4)C[C@H]3F)[nH]c2c1 2.86% [at 57.5 µM]
O=C(N[C@H]1CCN2C(=O)c3ccccc3NC(=O)[C@@H]2C1)c1ccccc1 0.709% [at 57.5 µM]
Cc1noc2c(N3CC(O)C3)cc(-c3ccsc3)nc12 5.82% [at 76.7 µM]
CSCC(=O)N1CC[C@H](NC(=O)Nc2ccc(F)cc2F)[C@H]1C(=O)N[C@@H](Cc1cccs1)C(N)=O -2.75%
OC1(c2nc(Nc3ccc(Oc4ccccc4)cc3)n[nH]2)CCOCC1 -7.8% [at 57.5 µM]
Nc1cncc(-c2nccc(N3CCC(O)CC3)n2)c1 11%
Cc1cc(-c2cc3c(cn2)CN(Cc2ccc4[nH]ccc4c2)CCN3)ccn1 12.5% [at 57.5 µM]
CN(C(=O)c1cc2ccccc2n1C)C1CCCN(C2Cc3ccccc3C2)C1 (stereo unspecified) 2.32%
Cc1noc(C2CC3(CCN(C(=O)C4CCC4)CC3)CN2C)n1 (stereo unspecified) 0.282%
COc1nccnc1NC1CCN(C(=O)c2cccs2)CC1 -1.2%
COc1cccc(NC(=O)N[C@H]2[C@H](O)[C@@H](N3CCN(C)CC3)[C@@H]3OC[C@H]2O3)c1 -3.13% [at 57.5 µM]
COC(=O)[C@H](Cc1ccc(OC)cc1)NC(=O)[C@H]1CN(S(=O)(=O)c2ccccc2)CCN1C(=O)c1cccs1 1.39%
O=C(CN1C(=O)NC(c2ccccc2Cl)C2=C1COC2=O)Nc1ccc(F)c(Cl)c1 (stereo unspecified) 9.81%
CC(=O)N1CCN(CC[C@H]2CN(C(=O)c3ccnc(Cl)c3)CC[C@H]2CC(=O)O)CC1 -1.75%
CS(=O)(=O)N1CCCCC1CCNc1nccc(-c2cccnc2)n1 (stereo unspecified) 7.62%
O=C(N[C@H]1CC[C@H](Nc2nccc(-c3cccnc3)n2)C1)c1ccc(O)cc1 2.61%
COc1ccc(-c2cnc3[nH]cc(CC(=O)NCc4cnccn4)c3c2)cc1 23.3% [at 57.5 µM]
COc1ccc2c(c1)CCN=C2C[C@H]1CN(C(=O)c2cccc(F)c2)CC[C@H]1CC(=O)O -3.19%
CCN(CC)Cc1cnc2c(C(=O)N3CCC(N(C)C)C3)cnn2c1 (stereo unspecified) -3.8%
Cn1c(CN2CCOCC2)nnc1C1CCN(c2ncccc2C#N)CC1 1.8%
Cc1ccc(NC(=O)O[C@@H]2CO[C@H]3[C@@H]2OC[C@@H]3Nc2nccc(-c3ccccc3)n2)cc1 5.94% [at 57.5 µM]
CC(=O)N1CCC(NC2(Cc3cc(CN(C)Cc4ccccc4)on3)COC2)CC1 2.01% [at 57.5 µM]
COc1cccc(CN2CCN(c3ncccc3Cl)CC2CCO)c1 (stereo unspecified) -1.7%
COc1cccc(CNC(=O)c2cc(-c3ccncc3)cn2C)c1OC 9.61%
Cc1ccc(-c2cc(N3CCC(CNC(=O)c4cc(C5CC5)[nH]n4)CC3)n[nH]2)cc1 0.771%
CCNC(=O)N1CCC[C@@H](O)[C@H](NC(=O)c2ccc(OCCOC)cc2)C1 -3% [at 57.5 µM]
CCc1ccc(N2CC(c3noc(-c4cc(Cl)ccc4F)n3)CC2=O)cc1 (stereo unspecified) -1.56%
O=C(c1ccccc1)N1CCn2c(nn(-c3ccc([N+](=O)[O-])cc3)c2=O)C1 -2.13%
COC(=O)c1cn([C@H]2CO[C@H]3[C@@H]2OC[C@@H]3NC(=O)c2ccc(N(C)C)cc2)nn1 -9.19% [at 57.5 µM]
CC1(C(=O)NCCc2ccccn2)COCc2cnc(Nc3ccccc3)nc21 (stereo unspecified) 3.36% [at 57.5 µM]
Cc1nc(C(C)C)sc1CNC(=O)C1CCC(=O)N(C2CCCC2)C1 (stereo unspecified) 6.85%
CCc1cc(=O)n(CC(=O)Nc2ccc(C(F)(F)F)cc2)c(N2CCOCC2)n1 -0.257%
Cc1ccc(C(=O)NC[C@@H]2CC[C@H]3C[C@@H]2C3(C)C)cc1 6.23% [at 57.5 µM]
COC(=O)c1cn([C@H]2CO[C@H]3[C@@H]2OC[C@H]3OC(=O)Nc2cccc(C#N)c2)nn1 -0.317% [at 57.5 µM]
CN1Cc2ncnc(NCCc3ccc(F)cc3)c2CN(c2ccc(Cl)cc2)C1=O 0.2%
CC1(CNc2ccccc2)COc2ccc(C(=O)NCCc3cnc[nH]3)cc2N1 (stereo unspecified) -5.79% [at 57.5 µM]
CN(Cc1ccccc1)C(=O)C[C@@H]1CCNC[C@@H]1Cc1cc(-c2ccc(C(C)(C)C)cc2)on1 -1.28%
CC(=O)Nc1ccc(S(=O)(=O)NC[C@@H]2C=C(C)[C@H](CC(=O)NCCN(C)C)C[C@H]2C(C)C)cc1 -10.7%
N#Cc1ccc(C(=O)N2C[C@@H]3C[C@H](C2)c2ccc(-c4ccc(OC(F)(F)F)cc4)c(=O)n2C3)cc1 -0.0396%
COC[C@@H]1CN(C(=O)c2ccc(OC)nc2)C[C@H]1c1nc(C2CC2)no1 2.51%
NC(=O)Cc1c[nH]c2ncc(-c3ccc4c(c3)OCO4)cc12 28.7% [at 57.5 µM]
O=C(NC(c1ccccc1)c1ccccc1)c1cnc2c(c1)N(Cc1ccccc1)CCC2 -9.04% [at 57.5 µM]
COCCNc1nc2cc(C(=O)N3CC[C@H](CO)[C@@H](O)C3)ccc2n1C 6.3%
CCn1ncc(NC(=O)Cn2ncc3cc(-c4ccc(C(=O)N(C)C)cc4)ccc32)n1 24.8%
CC(C)CN[C@H]1CO[C@H]2[C@@H]1OC[C@@H]2Nc1nccc(C(C)(C)C)n1 -0.932% [at 57.5 µM]
CCN(CC)C(=O)[C@@H]1C[C@H](N)CN1C(=O)c1cc2ccccc2n(C)c1=O 0.851%
CCOc1ccccc1-c1nc(C2CC(=O)N(c3ccc(C)cc3)C2)no1 (stereo unspecified) -0.249%
CN(Cc1ccccc1)Cc1cc(C[C@@H]2CC[C@H](O)[C@@H](CNC(=O)Nc3ccccc3)O2)no1 2.05%
COc1ccc([C@@H](NC(=O)Cc2c(F)cccc2Cl)C2CC(O)C2)cn1 (stereo partly specified) 0.586%
CCCCCC(=O)N[C@H]1C[C@@H](Cc2cc(COc3ccccc3)on2)C1(C)C 2.63% [at 57.5 µM]
OC(c1nc(Nc2ccc(Oc3ccccc3)cc2)n[nH]1)C1CC1 (stereo unspecified) -1.1% [at 57.5 µM]
CCCc1cc(C(=O)N[C@@H]2COCC[C@H]2Oc2ccc(C(=O)O)cc2)n[nH]1 -3.33%
NC(=O)C1CCC(=O)N1C1CCNCC1 (stereo unspecified) -0.167%
O=C(O)c1cccc(CN2CCN(c3ccc4nccn4n3)CC2)n1 -14.8%
CCCCCC(=O)Nc1nc2c(s1)C[C@@H]1[C@](C)(CO)[C@H](O)CC[C@@]1(C)[C@@H]2CC(=O)NCc1ccccc1 2.07%
Cn1nc(C(=O)Nc2ccc3c(c2)C(=O)N2CCC[C@H]2C(=O)N3)c2ccccc21 1.02%
CC(C)C1CN(C(=O)c2ccccc2-c2ncc[nH]2)CCC(=O)N1CC1CC1 (stereo unspecified) 5.2%
CC[C@H]1CN(C(C)=O)CC[C@H]1CC(=O)Nc1ccccc1 -10.5% [at 76.7 µM]
CC1=C[C@@H](CNC(=O)c2ccc(F)cc2)[C@H](C(C)C)C[C@H]1CC(=O)N1CCN(C)CC1 8.05% [at 57.5 µM]
O=C1Nc2ccc(/C=C/c3ccccc3)cc2C(=O)N2CC[C@H](NS(=O)(=O)c3cccs3)[C@@H]12 4.39%
COc1cncc([C@@H](NC(=O)Cc2cn3ccsc3n2)C2CC(O)C2)c1 (stereo partly specified) -2.36%
CN(C)S(=O)(=O)CCCN1CC[C@@H](NC(=O)c2ccccn2)[C@H](O)C1 -0.714%
O=C(Nc1ccc(Oc2ccccc2)cc1)N[C@H]1CO[C@H]2[C@@H]1OC[C@H]2OC(=O)Nc1cccc(C(F)(F)F)c1 242%
Cc1ccc(S(=O)(=O)N[C@H]2CO[C@H]3[C@@H]2OC[C@H]3OCC(N)=O)cc1 -3.58% [at 57.5 µM]
CCOC(=O)c1cccc(NC(=O)O[C@@H]2CO[C@H]3[C@@H]2OC[C@@H]3n2nnnc2SC2CCCC2)c1 6.42%
COc1ccc(CN2C=C(C(=O)OCc3noc(-c4cccc(OC)c4)n3)C(C)=NS2(=O)=O)cc1 9.65%
O=C(Nc1ccsc1)N[C@H]1C[C@H]2C(=O)NC[C@@H](CCC(=O)N3CCCCC3)N2C1 -15.9% [at 57.5 µM]
COC(=O)[C@@H]1Cc2nc[nH]c2CN1C(C)C -11.1% [at 76.7 µM]
OC(CCc1ccccc1)C1CCN(Cc2nc(-c3ccccn3)no2)CC1 (stereo unspecified) -11.1%
O=C(NCCc1cnc[nH]1)C1CCN(C2CCCCC2)CC1 -9.13%
CCOC(=O)c1ccc(N2C(=O)[C@@H]3Cc4nc[nH]c4CN3C2=O)cc1 3.45% [at 57.5 µM]
Cc1cc(CN2CCC(CO)(Cc3ccccc3Cl)CC2)cc(C)c1O -0.358%
COc1ccc(C(=O)NCc2nnc3ccc(-c4ccccc4)nn23)c(OC)n1 9.23%
O=C(CN1CC2CC(C1)[C@H]1CCCC(=O)N1C2)Nc1ccccc1 (stereo partly specified) -0.533%
O=C(c1ccccc1)N1C[C@@H]2OCC(=O)N(c3ccccc3)[C@@H]2C1 -4.96% [at 57.5 µM]
O=C1Nc2ccc(-c3cccc(C(F)(F)F)c3)cc2C(=O)N2CCN(C(=O)[C@@H]3CSCN3)C[C@H]12 -1.58%
O=[S+]([O-])(NCC1CN(Cc2ccc(O)cc2)CC12CN(c1ccccc1)C2)c1ccccc1 (stereo unspecified) 2.73%
CC(=O)N1CCN(C(=O)C[C@@H]2C[C@@H](C(C)C)[C@H](CNC(=O)Nc3cccc(F)c3)C=C2C)CC1 -1.02%
O=C(NC1CCCCC1)N[C@H]1CO[C@H]2[C@@H]1OC[C@@H]2n1cc(-c2ccccc2)nn1 2.09% [at 57.5 µM]
Oc1ccccc1CN1CCNc2cnc(-c3ccccc3)cc2C1 -1.68% [at 57.5 µM]
CC(=O)Nc1cccc(-c2ccc3ncn(-c4cccnc4)c(=O)c3n2)c1 2.6% [at 57.5 µM]
CC(C)c1ccc(C(=O)N2CCCC[C@H](N(C)C)C2)c(=O)n1C -5.46%
Cn1ccnc1CN[C@@H]1C[C@H](CO)[C@@H](O)[C@H]1O -2.53% [at 76.7 µM]
CC[C@H]1CN(C(=O)C(C)(C)C)CC[C@H]1CC(=O)NCCSC 1.16% [at 57.5 µM]
COc1ccc(C(=O)N[C@H]2C[C@H]3C(=O)Nc4ccccc4C(=O)N3C2)cc1 2.8% [at 57.5 µM]
O=C(Cc1ccncc1)N1CCC2(CC1)NCCc1c2[nH]c2ccccc12 -1.63%
CN(Cc1ccccc1)Cc1cn([C@H]2CO[C@H]3[C@@H]2OC[C@@H]3NC(=O)NCc2ccccc2)nn1 -6.32%
CC1=C[C@@H](CNC(=O)Cc2ccccc2)[C@H](C(C)C)C[C@H]1Cc1nc2ccncc2[nH]1 18% [at 57.5 µM]
CCC[C@H]1C[C@H]1C(=O)N1CCC2(CCC(=O)N(CC(N)=O)C2)CC1 2.24%

Not a retest: entries from further up.
activity, negative = inhibition, inactive:
OC(CCc1ccccc1)C1CCN(Cc2nc(-c3ccccn3)no2)CC1 (stereo unspecified) -11.1%
O=C(NCCc1cnc[nH]1)C1CCN(C2CCCCC2)CC1 -9.13%

Random excerpt: two records from the list.
activity, negative = inhibition, inactive:
CCNC(=O)N1CCC[C@@H](O)[C@H](NC(=O)c2ccc(OCCOC)cc2)C1 -3% [at 57.5 µM]
CCCCCC(=O)N[C@H]1C[C@@H](Cc2cc(COc3ccccc3)on2)C1(C)C 2.63% [at 57.5 µM]
